# In PubChem BioAssay AID2417 (National Center for Advancing Translational Sciences (NCATS), 2010):
# Out of some 140,000 compounds screened, about 4,300 (3.1%) were called active. Inconclusive results, whose numbers are uncertain, are shown with a selection of clear calls.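 The calls were made as follows: active = readout at or below -70, meaning at least 70% loss of cells showing the perinucleolar compartment, a nuclear body marking cancer cells; inconclusive = readout between -30 and a set limit; inactive = the rest.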
# Assay: High Content Assay for Compounds that inhibit the Assembly of the Perinucleolar Compartment;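 also: plate controls were DMSO wells for no effect and camptothecin positive control wells for full effect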
# Details: PC3M PTB-GFP, PNC prevalence imaging, 16 h; at 10 µM; active compounds read low
# Method in brief: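 PC3M cells stably expressing PTB-GFP, 750–1000 cells/well, treated 16 h at 37 °C with compound (23 nl of library stock), in duplicate. After paraformaldehyde fixation and Hoechst stain, imaged at 20x; PNC prevalence scored by image analysis.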
row,Structure (SMILES),"activity change (PNC), negative = inhibition"
1,N#Cc1c(NC(=O)CSc2nc(-c3ccco3)cc(C(F)(F)F)n2)sc2c1CCCC2,active: -83.8%
2,O=C(/C=C1\NC2(CCCC2)Cc2ccccc21)C(=O)N/N=C/c1ccccc1O,inactive: -12.5%
3,CCSc1nnc(NC(=O)CSc2nnc(-c3c[nH]c4ccccc34)n2C)s1,inconclusive: -48%
4,COCc1cc(C)nc(Nc2ccc(C)cc2C)c1C#N,inconclusive: -53.1%
5,CC(C)CC(NC(=O)c1ccc(Cl)cc1)C(=O)OCc1cc([N+](=O)[O-])cc2c1OCOC2 (stereo unspecified),inactive: -2.14%
6,Cc1sc2nc(CN3CCCCC3)nc(Cl)c2c1C,inconclusive: -70.1%
7,CCC(C)OC(=O)c1[nH]c2c(c1C)C(=O)CC(c1ccc(N(C)C)cc1)C2 (stereo unspecified),inactive: -22.7%
8,Cc1cnn(-c2cc(N/N=C/c3ccc(F)cc3)ncn2)c1,inconclusive: -44.8%
9,CC(C)Nc1nc(Oc2cccc(Cl)c2Cl)cc(C(F)(F)F)n1,inconclusive: -60.1%
10,CCOc1ccc(NC(=NCc2ccc3c(c2)OCO3)SC2CC(=O)N(c3ccccc3)C2=O)cc1 (stereo unspecified),active: -100%
11,CCOc1cc(NC(=O)CC(C)C)c(OCC)cc1NC(=O)CCn1nnc2ccccc21,inconclusive: -44.2%
12,CCCn1c(/C=C/c2ccco2)nc2ccccc21,inconclusive: -44.2%
13,COC(=O)C1=C(C)NC(C)=C(C(=O)OC)C1c1ccc(-c2cc(Cl)ccc2Cl)o1,inactive: -4.73%
14,O=C(NCCCCCCNC(=O)c1ccc(Br)s1)c1ccc(Br)s1,inconclusive: -64.2%
15,CC1SC(c2ccccc2Cl)NC1=O (stereo unspecified),inconclusive: -67.5%
16,COc1ccc([N+](=O)[O-])cc1NC(=O)Cc1c(Cl)cccc1Cl,inconclusive: -35%
17,CCCCn1c(CN2CCN(c3ccccc3)CC2)nc2c1c(=O)n(C)c(=O)n2C,inactive: 14.4%
18,CCn1c(CSc2nc(C)cc(C)n2)nnc1SCC(=O)Nc1cccc2ccccc12,active: -107%
19,S=C(NCc1cccc(Cl)c1)NC1CCCCC1,active: -109%

# Four records drawn at random from the list so far:
row,Structure (SMILES),"activity change (PNC), negative = inhibition"
2,O=C(/C=C1\NC2(CCCC2)Cc2ccccc21)C(=O)N/N=C/c1ccccc1O,inactive: -12.5%
5,CC(C)CC(NC(=O)c1ccc(Cl)cc1)C(=O)OCc1cc([N+](=O)[O-])cc2c1OCOC2 (stereo unspecified),inactive: -2.14%
7,CCC(C)OC(=O)c1[nH]c2c(c1C)C(=O)CC(c1ccc(N(C)C)cc1)C2 (stereo unspecified),inactive: -22.7%
9,CC(C)Nc1nc(Oc2cccc(Cl)c2Cl)cc(C(F)(F)F)n1,inconclusive: -60.1%

# Continuation:

row,Structure (SMILES),"activity change (PNC), negative = inhibition"
1,CCOc1cc(Cl)c(NC(C)=O)cc1OCC,inactive: 17.2%
2,Cc1nc2cc(C(F)(F)F)ccc2n1C1CCN(CC(=O)N2CCOCC2)CC1,inconclusive: -50%
3,Cc1cc(Cl)ccc1NC(=S)N1CCN(C(=O)C2CCCO2)CC1 (stereo unspecified),inconclusive: -43.5%
4,Cc1ccc(S(=O)(=O)n2ccc3cccnc32)cc1,active: -100%
5,CCOc1cc(/C=N/n2cnnc2)ccc1OC(=O)c1cccc([N+](=O)[O-])c1,inactive: 0.48%
6,CCCCOc1ccc(NC(=O)C2OC3OC(C)(C)OC3C3OC(C)(C)OC23)cc1 (stereo unspecified),inconclusive: -50.4%
7,Cc1ccc(N2C(=O)[C@@H]3[C@H](C2=O)[C@H]2C=C(C(=O)c4ccccc4)C=CN2[C@@H]3C(=O)c2ccc(Cl)cc2)cc1,inconclusive: -43.6%
8,Cc1nc(Nc2nc(CSc3nc4ccccc4[nH]3)cc(=O)[nH]2)nc2ccccc12,active: -96.6%
9,O=C(O)CCc1ccc(-c2cccs2)n1NC(=O)c1ccccc1Br,inconclusive: -74.7%
10,Cc1ccc(C(=O)NNC(=O)C2CCN(Cc3ccccc3)CC2)cc1,inconclusive: -41.4%
11,O=C(CSc1nnc(-c2ccncc2)n1Cc1ccco1)Nc1ccccc1Cl,inconclusive: -48.5%
12,COCCn1c(COc2ccc(OC)cc2)nc2ccccc21,inactive: -29.7%
13,O=C(N/N=C/c1cccnc1)C(O)c1ccccc1 (stereo unspecified),inconclusive: -73.2%
14,CC(C)Cn1c(-c2csc3ccccc23)n[nH]c1=S,inconclusive: -37.6%
15,Cn1c(SCC(=O)c2ccccc2)nnc1C1CC1,inactive: -11.4%
16,Cc1cc(C)cc(OCC(=O)Nc2ccccc2N2CCCCC2)c1,inconclusive: -42.4%
17,COC(=O)N1CC(c2ccccc2)CC1=O (stereo unspecified),inconclusive: -78.5%
18,COc1cc(C2C3C(=O)N(Cc4ccccc4)C(=O)C3ON2c2ccccc2)cc(OC)c1OC (stereo unspecified),inconclusive: -38.7%
19,COc1cccc(-c2nnc(SCC(=O)Nc3ccc4c(c3)OCCO4)n2Cc2ccco2)c1,inconclusive: -30.3%

row,Structure (SMILES),"activity change (PNC), negative = inhibition"
1,CC1CN(C(=O)C2CCCCC2)C(C)CN1C(=O)C1CCCCC1 (stereo unspecified),inconclusive: -74.4%
2,Cc1ccc(Cl)cc1NC(=O)CCC(=O)Nc1cc(Cl)ccc1C,inconclusive: -60.1%
3,COc1ccc(-c2nnc3sc(CN4C(=O)c5ccccc5C4=O)nn23)cc1,inactive: -21.8%
4,Cc1ccc(N(CC(=O)N2CCN(C3CCCCC3)CC2)S(=O)(=O)c2cccnc2)cc1,inactive: 6.1%
5,COc1cc(C(=O)Nc2ccc(S(=O)(=O)N3CCCCC3C)cc2)cc(OC)c1OC (stereo unspecified),inconclusive: -64.1%
6,COCCN(C(=S)Nc1ccc(OC)cc1)C1CCN(C(C)=O)CC1,inactive: 50.1%
7,O=C(C1=C(O)C(=O)N(CCCN2CCOCC2)C1c1ccccn1)c1cccs1 (stereo unspecified),inconclusive: -38.7%
8,CC1(CC(=O)N/N=C/c2ccc(-c3ccc(Cl)cc3)o2)OCCO1,inconclusive: -79.2%
9,Cc1ccc(C(C(=O)Nc2ccc3c(c2)OCO3)N(C)C(=O)Cc2c[nH]c3ccccc23)cc1 (stereo unspecified),inactive: -27.6%
10,CC1CCCCN1S(=O)(=O)c1ccc(S(=O)(=O)N(Cc2ccccc2)Cc2ccco2)cc1 (stereo unspecified),active: -100%
11,Cc1ccc2c(c1)[nH]c1c(=O)n(Cc3ccccn3)cnc12,inconclusive: -35.1%
12,Cc1ccc(CNC(=O)C2CCC(=O)N2CCc2ccccc2)cc1 (stereo unspecified),inconclusive: -51.2%
13,CC(C)c1ccc(-c2cc(C(=O)N3N=C(C(F)F)CC3(O)C(F)F)c3ccccc3n2)cc1 (stereo unspecified),inconclusive: -49.8%
14,COc1cc(/C=N\NC(=O)C2CC3C=CC2C3)ccc1O (stereo unspecified),inconclusive: -44.8%
15,CCC(=O)Nc1c(S(=O)(=O)c2ccccc2)c2nc3ccccc3nc2n1Cc1ccccc1,inactive: 8.42%
16,CCOC(=O)c1c2ccc(OCC(=O)N/N=C/c3ccccc3C(F)(F)F)cc2n2ccccc12,inconclusive: -45.2%
17,COc1ccccc1C(C)NC(=O)c1ccc(C)o1 (stereo unspecified),inactive: 35.3%
18,Cc1ccc(S(=O)(=O)CC(=O)N2CCCC2)cc1,active: -100%
